Assay results as given in patent US9937235B2, “Lipidated peptides as anti-obesity agents” (USTAV ORGANICKE CHEMIE A BIOCHEMIE AKADEMIE VED CR, V.V.I, priority 2012, dated 2018).
At least one structure is not confirmed: it was looked up by name or label, or the drawing left a doubt. Where a SMILES comes first, the peptide text is derived from it. [ ]: non-standard residue; d: D form. The star is where a group is joined. Palmitoyl = CCCCCCCCCCCCCCCC(=O)*; Tridecanoyl = CCCCCCCCCCCCC(=O)*; Nle = CCCC[C@H](N)C(=O)O; Dap = NC[C@H](N)C(=O)O

Legend:
[1] = target: T1, rat PrRP receptor (GPR10) in RC-4B/C cells (Rattus norvegicus, UniProt Q64121); test: Competitive binding to rat pituitary RC-4B/C cells; conditions: ^125I-rat PrRP31, RC-4B/C cells, Table 2
T1 construct: host or cells: RC-4B/C rat pituitary cell line
T1 sequence (Q64121 1-370): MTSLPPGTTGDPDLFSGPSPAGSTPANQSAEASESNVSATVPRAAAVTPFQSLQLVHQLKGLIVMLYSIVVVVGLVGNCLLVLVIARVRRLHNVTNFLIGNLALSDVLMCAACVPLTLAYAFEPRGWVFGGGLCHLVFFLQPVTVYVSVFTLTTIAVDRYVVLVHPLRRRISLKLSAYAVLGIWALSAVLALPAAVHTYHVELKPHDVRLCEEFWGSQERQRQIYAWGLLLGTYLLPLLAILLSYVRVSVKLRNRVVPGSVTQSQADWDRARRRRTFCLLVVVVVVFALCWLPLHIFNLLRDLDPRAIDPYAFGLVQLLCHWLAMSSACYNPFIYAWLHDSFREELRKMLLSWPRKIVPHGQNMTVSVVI
Description: Competitive binding experiments were performed according to Motulsky and Neubig (Motulsky, A., et al., “Analyzing radioligand binding data,” Curr Protoc Neurosci, Chapter 7, Unit 7.5, 2002). The rat pituitary cell line RC-4B/C (ATCC, Manassas, USA) was grown on 24-well plates which had their bottom coated with polyethyleneimine. The cells were grown to the optimal density of 300-450 thousand per well. […] Plates were incubated for 60 minutes at room temperature. After incubation, the cells were solubilized in 0.1 mol/l solution of NaOH and the radioactivity bound to the cells was counted using a γ-counter. The experiments were performed in duplicate and repeated at least three times. For evaluation of competitive binding experiments, the program Graph Pad Prism Software (San Diego, Calif., USA) was used. A method of nonlinear regression assuming one-site binding was used.

[2] = target: T2, human PrRP receptor, GPR10 (Homo sapiens, UniProt P49683); test: Competitive binding to CHO cells with transfected human GPR10; conditions: CHO cells with transfected human GPR10, human ^125I—PrRP31
T2 construct: host or cells: CHO cells
T2 sequence (P49683 1-370): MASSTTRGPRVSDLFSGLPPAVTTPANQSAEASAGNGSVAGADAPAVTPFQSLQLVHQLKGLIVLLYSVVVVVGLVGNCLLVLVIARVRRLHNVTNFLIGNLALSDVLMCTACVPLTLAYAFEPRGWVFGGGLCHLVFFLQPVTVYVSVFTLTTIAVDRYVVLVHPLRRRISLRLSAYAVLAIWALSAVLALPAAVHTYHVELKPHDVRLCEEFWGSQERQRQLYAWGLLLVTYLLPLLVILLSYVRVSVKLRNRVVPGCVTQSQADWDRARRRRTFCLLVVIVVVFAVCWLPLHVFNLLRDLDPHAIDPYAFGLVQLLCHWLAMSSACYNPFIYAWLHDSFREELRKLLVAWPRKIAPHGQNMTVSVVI
Description: Competitive binding experiments were performed according to Motulsky and Neubig (Motulsky, A., et al., “Analyzing radioligand binding data,” Curr Protoc Neurosci, Chapter 7, Unit 7.5, 2002).
CHO cells with transfected human PrRP receptor, GPR10 (Perkin Elmer, USA) were grown on 24-well plates coated with polyethyleneimine. The cells were grown to the optimal density of 40-80 thousand cells per well. The following agents were used for the experiment: binding buffer (25 mmol·l^−1 Tris, pH 7.4; 118 mmol·l^−1 NaCl, 10 mmol·l^−1 MgCl2, 1 mmol·l^−1 CaCl2, 5.5 mmol·l^−1 glucose, 0.5 mg/ml BSA), unlabelled analogs of PrRP of final concentration within 10^−11 to 10^−4 mol·l^−1, and human ^125I—PrRP31 of final concentration of 5×10^−11 mol·l^−1.
Plates were incubated for 60 minutes at room temperature. After incubation, the cells were solubilized in 0.1 mol/l solution of NaOH and the radioactivity bound to the cells was counted using a γ-counter. The experiments were performed in duplicate and repeated at least three times.
For evaluation of competitive binding experiments, the program Graph Pad Prism Software (San Diego, Calif., USA) was used. A method of nonlinear regression assuming one-site binding was used.

Row | Structure (SMILES) | Ki [1] [nM] | Ki [2] [mM]
1 | CCCCCCCCCCCCC(=O)NC[C@H](N)C(=O)N[C@@H](CCCNC(=N)N)C(=O)N[C@@H](C)C(=O)N[C@@H](Cc1c[nH]cn1)C(=O)N[C@@H](CCC(N)=O)C(=O)N[C@@H](Cc1c[nH]cn1)C(=O)N[C@@H](CO)C(=O)N[C@@H](CCCC)C(=O)N[C@@H](CCC(=O)O)C(=O)N[C@H](C(=O)N[C@@H](CCCNC(=N)N)C(=O)N[C@H](C(=O)N1CCC[C@H]1C(=O)N[C@@H](CC(=O)O)C(=O)N[C@H](C(=O)N[C@@H](CC(N)=O)C(=O)N1CCC[C@H]1C(=O)N[C@@H](C)C(=O)N[C@@H](Cc1c[nH]c2ccccc12)C(=O)N[C@@H](Cc1ccc(O)cc1)C(=O)N[C@H](C(=O)NCC(=O)N[C@@H](CCCNC(=N)N)C(=O)NCC(=O)N[C@H](C(=O)N[C@@H](CCCNC(=N)N)C(=O)N1CCC[C@H]1C(=O)N[C@H](C(=O)NCC(=O)N[C@@H](CCCNC(=N)N)C(=O)N[C@@H](Cc1ccccc1)C(N)=O)C(C)C)[C@@H](C)CC)[C@@H](C)O)[C@@H](C)CC)[C@@H](C)O)[C@@H](C)O [Analog 4] (H-[Dap](Tridecanoyl)RAHQHS[Nle]ETRTPDINPAWYTGRGIRPVGRF-NH2) | 0.51 ± 0.03 | 
2 | CCCCCCCCCCCCCCCC(=O)NC[C@H](N)C(=O)N[C@@H](CCCNC(=N)N)C(=O)N[C@@H](C)C(=O)N[C@@H](Cc1c[nH]cn1)C(=O)N[C@@H](CCC(N)=O)C(=O)N[C@@H](Cc1c[nH]cn1)C(=O)N[C@@H](CO)C(=O)N[C@@H](CCCC)C(=O)N[C@@H](CCC(=O)O)C(=O)N[C@H](C(=O)N[C@@H](CCCNC(=N)N)C(=O)N[C@H](C(=O)N1CCC[C@H]1C(=O)N[C@@H](CC(=O)O)C(=O)N[C@H](C(=O)N[C@@H](CC(N)=O)C(=O)N1CCC[C@H]1C(=O)N[C@@H](C)C(=O)N[C@@H](Cc1c[nH]c2ccccc12)C(=O)N[C@@H](Cc1ccc(O)cc1)C(=O)N[C@H](C(=O)NCC(=O)N[C@@H](CCCNC(=N)N)C(=O)NCC(=O)N[C@H](C(=O)N[C@@H](CCCNC(=N)N)C(=O)N1CCC[C@H]1C(=O)N[C@H](C(=O)NCC(=O)N[C@@H](CCCNC(=N)N)C(=O)N[C@@H](Cc1ccccc1)C(N)=O)C(C)C)[C@@H](C)CC)[C@@H](C)O)[C@@H](C)CC)[C@@H](C)O)[C@@H](C)O [Analog 6] (H-[Dap](Palmitoyl)RAHQHS[Nle]ETRTPDINPAWYTGRGIRPVGRF-NH2) | 0.46 ± 0.06 | 
3 | CCCC[C@H](NC(=O)CNC(=O)[C@H](CCCNC(=N)N)NC(=O)[C@@H]1CCCN1C(=O)[C@H](Cc1ccc(O)cc1)NC(=O)[C@H](Cc1c[nH]c2ccccc12)NC(=O)[C@H](Cc1c[nH]cn1)NC(=O)[C@@H](NC(=O)[C@H](CC(=O)O)NC(=O)[C@H](C)NC(=O)[C@@H]1CCCN1C(=O)[C@H](CCCNC(=N)N)NC(=O)[C@H](CCC(N)=O)NC(=O)[C@H](Cc1c[nH]cn1)NC(=O)[C@@H](N)CO)[C@@H](C)O)C(=O)N[C@@H](Cc1ccccc1)C(=O)N1CCC[C@H]1C(=O)N[C@H](C(=O)N[C@H](C(=O)NCC(=O)N[C@@H](CCCNC(=N)N)C(=O)N[C@H](C(=O)N[C@H](C(=O)N[C@@H](C)C(=O)N[C@@H](CCCNC(=N)N)C(=O)N[C@@H](CC(N)=O)C(=O)NCC(=O)N[C@@H](CCC(=O)O)C(=O)N[C@H](C(=O)N[C@@H](CO)C(=O)N[C@@H](CCCNC(=N)N)C(=O)O)C(C)C)[C@@H](C)O)[C@@H](C)CC)[C@@H](C)CC)[C@@H](C)O [Analog 30] (H-SHQRPADTHWYPRG[Nle]FPTIGRITARNGEVSR-OH; N-terminus and C-terminus assumed) |  | > 10
